Test results published in the supplement of paper PMC4604168 (melanoma cell lines).
Some of the results follow. Single values are uncertain, as repeats are few or missing.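 The apoptosis fraction was the count of cleaved-PARP antibody-stained nuclei relative to all DNA-stained nuclei, imaged in 1,536-well plates. Screening doses were set so most cells survived, and baseline and induced cleaved-PARP levels vary greatly across cell lines.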

The compounds below were run on UACC62 (assay: cleaved PARP positive nuclei fraction relative to DMSO control; melanoma cells; higher = more apoptosis). Conditions: library dose: low library concentration; 72 h.

Row | SMILES | cleaved PARP positive nuclei fraction [%]
1 | CN(C)S(=O)(=O)c1ccc2c(c1)/C(=C/c1cc3c([nH]1)CCCC3)C(=O)N2 + CCN(CC)CCCCNc1ncc2cc(-c3cc(OC)cc(OC)c3)c(NC(=O)NC(C)(C)C)nc2n1 [PD173074] (first compound 0.4 µM, partner dose 0.1 µM) | 134
2 | COc1ccc(-c2ccc3c(N4CCOCC4)nc(N4C[C@@H](C)O[C@@H](C)C4)nc3n2)cc1CO + O=c1cc(-c2cccc3c2Sc2ccccc2S3)oc(N2CCOCC2)c1 [KU55933] (first compound 0.02 µM, partner dose 1 µM) | 100
3 | NCC(=O)Nc1ccc(-n2nc(C(F)(F)F)cc2-c2ccc3c(ccc4ccccc43)c2)cc1 + Cn1cc(/C=C2\C(=O)Nc3cccnc32)c2ccccc21 [GW441756] (first compound 1 µM, partner dose 0.4 µM) | 61.7
4 | COc1ccc(-c2ccc3c(N4CCOCC4)nc(N4C[C@@H](C)O[C@@H](C)C4)nc3n2)cc1CO + CC(C)CCN1c2nc(Nc3cc(F)c(O)c(F)c3)ncc2N(C)C(=O)C1C [BID1870] (first compound 0.02 µM, partner dose 0.2 µM) | 165
5 | CCN(CC)CCCCNc1ncc2cc(-c3cc(OC)cc(OC)c3)c(NC(=O)NC(C)(C)C)nc2n1 + Cc1cc([N+](=O)[O-])ccc1NS(=O)(=O)c1cc(Cl)ccc1Cl [FH535] (first compound 0.1 µM, partner dose 1 µM) | 45.7
6 | COc1cc2c(Oc3ccc4[nH]c(C)cc4c3F)ncnc2cc1OCCCN1CCCC1 [cediranib] + CCN(CC)CCCCNc1ncc2cc(-c3cc(OC)cc(OC)c3)c(NC(=O)NC(C)(C)C)nc2n1 [PD173074] (first compound 0.4 µM, partner dose 0.1 µM) | 78
7 | O=C(O)c1ccc(-c2c[nH]c3ncc(-c4ccccc4)cc23)cc1C1CCCC1 + Cn1cc(/C=C2\C(=O)Nc3cccnc32)c2ccccc21 [GW441756] (first compound 0.16 µM, partner dose 0.4 µM) | 106
8 | O=C(O)c1ccc(-c2c[nH]c3ncc(-c4ccccc4)cc23)cc1C1CCCC1 + Oc1nc(-c2ccc(C(F)(F)F)cc2)nc2c1CSCC2 [XAV939] (first compound 0.16 µM, partner dose 2 µM) | 87.6
9 | N#Cc1c(O)c2c(-c3ccc(-c4ccccc4O)cc3)csc2[nH]c1=O + COc1cc(N2CCC(N3CCN(C)CC3)CC2)ccc1Nc1ncc(Cl)c(Nc2ccccc2S(=O)(=O)C(C)C)n1 [NVP-TAE684] (first compound 2 µM, partner dose 0.08 µM) | 40.2
10 | Oc1cc(-c2nc(-c3ccccc3)[nH]c2-c2ccncc2)ccc1Cl + COc1cc(N2CCC(N3CCN(C)CC3)CC2)ccc1Nc1ncc(Cl)c(Nc2ccccc2S(=O)(=O)C(C)C)n1 [NVP-TAE684] (first compound 0.2 µM, partner dose 0.08 µM) | 227
11 | COc1ccc2c(c1)CCC1C2CCC2(C)C(NCCCCCCN3C(=O)C=CC3=O)CCC12 (stereo not given) + Oc1cc(-c2nc(-c3ccccc3)[nH]c2-c2ccncc2)ccc1Cl [L779450] (first compound 0.4 µM, partner dose 0.2 µM) | 136
12 | COc1cc2c(Oc3ccc4[nH]c(C)cc4c3F)ncnc2cc1OCCCN1CCCC1 [cediranib] + Oc1cc(-c2nc(-c3ccccc3)[nH]c2-c2ccncc2)ccc1Cl [L779450] (first compound 0.4 µM, partner dose 0.2 µM) | 273
13 | O=S(=O)(c1ccccc1)N(CC(F)(F)F)c1ccc(C(O)(C(F)(F)F)C(F)(F)F)cc1 + Cn1cc(/C=C2\C(=O)Nc3cccnc32)c2ccccc21 [GW441756] (first compound 1.4 µM, partner dose 0.4 µM) | 74.3
14 | N#Cc1c(O)c2c(-c3ccc(-c4ccccc4O)cc3)csc2[nH]c1=O + CC(C)CCN1c2nc(Nc3cc(F)c(O)c(F)c3)ncc2N(C)C(=O)C1C [BID1870] (first compound 2 µM, partner dose 0.2 µM) | 202
15 | O=S(=O)(c1ccccc1)N(CC(F)(F)F)c1ccc(C(O)(C(F)(F)F)C(F)(F)F)cc1 + Oc1cc(-c2nc(-c3ccccc3)[nH]c2-c2ccncc2)ccc1Cl [L779450] (first compound 1.4 µM, partner dose 0.2 µM) | 121

Part of the list above, as labelled records.
NCC(=O)Nc1ccc(-n2nc(C(F)(F)F)cc2-c2ccc3c(ccc4ccccc43)c2)cc1 + Cn1cc(/C=C2\C(=O)Nc3cccnc32)c2ccccc21 [GW441756] (first compound 1 µM, partner dose 0.4 µM)
  cleaved PARP positive nuclei fraction [%]: 61.7
COc1ccc(-c2ccc3c(N4CCOCC4)nc(N4C[C@@H](C)O[C@@H](C)C4)nc3n2)cc1CO + CC(C)CCN1c2nc(Nc3cc(F)c(O)c(F)c3)ncc2N(C)C(=O)C1C [BID1870] (first compound 0.02 µM, partner dose 0.2 µM)
  cleaved PARP positive nuclei fraction [%]: 165
